## Results of single-concentration screens

The chains behind the UniProt entries cited, without tags or fusion partners. Residues count along the entry.
UniProt Q4DA54, 1-478: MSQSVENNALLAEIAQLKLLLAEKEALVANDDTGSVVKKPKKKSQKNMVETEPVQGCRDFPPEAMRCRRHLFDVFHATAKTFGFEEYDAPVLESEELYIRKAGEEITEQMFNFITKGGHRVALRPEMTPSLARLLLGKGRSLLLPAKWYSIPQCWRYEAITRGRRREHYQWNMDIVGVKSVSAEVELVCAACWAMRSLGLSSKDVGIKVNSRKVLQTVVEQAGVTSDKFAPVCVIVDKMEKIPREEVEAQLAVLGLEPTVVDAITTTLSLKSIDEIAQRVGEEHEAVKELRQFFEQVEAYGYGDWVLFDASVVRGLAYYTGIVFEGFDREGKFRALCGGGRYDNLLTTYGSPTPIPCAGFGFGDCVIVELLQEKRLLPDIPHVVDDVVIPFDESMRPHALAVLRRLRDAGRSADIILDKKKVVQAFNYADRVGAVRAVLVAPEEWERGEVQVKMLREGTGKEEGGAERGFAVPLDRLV
UniProt P9WNZ1, whole entry: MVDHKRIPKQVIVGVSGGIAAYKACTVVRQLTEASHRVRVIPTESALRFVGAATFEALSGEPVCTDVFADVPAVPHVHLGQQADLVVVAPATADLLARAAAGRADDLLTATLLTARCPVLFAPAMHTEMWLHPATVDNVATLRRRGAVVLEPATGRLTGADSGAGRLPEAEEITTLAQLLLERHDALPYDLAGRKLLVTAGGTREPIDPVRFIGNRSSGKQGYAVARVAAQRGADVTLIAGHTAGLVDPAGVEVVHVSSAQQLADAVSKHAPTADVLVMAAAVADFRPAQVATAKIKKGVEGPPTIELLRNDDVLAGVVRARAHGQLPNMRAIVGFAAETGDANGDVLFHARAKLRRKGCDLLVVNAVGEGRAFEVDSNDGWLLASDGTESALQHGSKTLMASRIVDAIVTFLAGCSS
UniProt P9WPC5, whole entry: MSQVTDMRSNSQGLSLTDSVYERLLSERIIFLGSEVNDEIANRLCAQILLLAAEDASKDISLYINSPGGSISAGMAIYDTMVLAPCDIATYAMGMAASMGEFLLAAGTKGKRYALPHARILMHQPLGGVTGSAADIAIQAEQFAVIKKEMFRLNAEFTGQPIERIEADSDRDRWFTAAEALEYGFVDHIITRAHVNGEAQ
UniProt P9WPC3, whole entry partner: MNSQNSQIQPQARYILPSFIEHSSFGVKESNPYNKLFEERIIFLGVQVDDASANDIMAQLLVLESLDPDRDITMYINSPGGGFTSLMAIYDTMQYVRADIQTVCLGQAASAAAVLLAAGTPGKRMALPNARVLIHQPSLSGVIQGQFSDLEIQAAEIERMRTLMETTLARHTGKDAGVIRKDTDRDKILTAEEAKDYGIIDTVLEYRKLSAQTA
UniProt Q8IDJ8, 1-583: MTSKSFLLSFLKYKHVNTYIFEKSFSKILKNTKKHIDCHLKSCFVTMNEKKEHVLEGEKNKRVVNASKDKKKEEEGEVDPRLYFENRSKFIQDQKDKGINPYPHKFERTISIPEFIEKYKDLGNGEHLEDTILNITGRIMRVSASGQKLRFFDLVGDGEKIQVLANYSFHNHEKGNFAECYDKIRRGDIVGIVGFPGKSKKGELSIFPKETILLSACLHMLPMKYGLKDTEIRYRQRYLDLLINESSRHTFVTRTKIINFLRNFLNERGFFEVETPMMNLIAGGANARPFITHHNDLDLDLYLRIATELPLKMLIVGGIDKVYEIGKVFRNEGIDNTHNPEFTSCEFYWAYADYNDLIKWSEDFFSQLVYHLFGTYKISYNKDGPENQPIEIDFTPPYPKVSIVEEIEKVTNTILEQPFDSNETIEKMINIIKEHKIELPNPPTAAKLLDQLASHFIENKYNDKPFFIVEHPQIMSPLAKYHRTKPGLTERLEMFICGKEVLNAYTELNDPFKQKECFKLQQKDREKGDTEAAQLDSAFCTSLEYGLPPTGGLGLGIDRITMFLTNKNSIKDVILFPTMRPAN

Leishmania in macrophages: 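Cell assay of Leishmania donovani living inside macrophages; the read-out is not stated. Compounds at 30 µM. Higher reads as stronger inhibition (inferred: compounds with an IC50 in retests scored well above the rest). Size under these conditions: about 69,000 compounds, about 1,000 of them at 50% or above in at least one test.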
TcHisRS: 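Histidine-tRNA ligase, Trypanosoma cruzi CL Brener (UniProt Q4DA54). Enzyme assay of histidyl-tRNA synthetase; the read-out is not stated. Tested at 30 µM. The record gives no direction; compounds that gave an IC50 in retests scored well above the rest, so higher reads as stronger inhibition. Size under these conditions: about 69,000 compounds, about 31 of them at 50% or above in at least one test.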
CoaBC: 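Enzyme assay of CoaBC with a phosphate dye (Biomol Green) read at 650 nm. Target: Coenzyme A biosynthesis protein CoaBC, Mycobacterium tuberculosis (UniProt P9WNZ1). Concentration: 30 µM. Direction is inferred from only a few compounds that gave an IC50; most scored high, so higher reads as stronger inhibition. Most strong results did not repeat in a second test. About 67,000 compounds were tested under these conditions; 0.06% (about 40) showed 50% or more at least once.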
ClpP1P2: 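ClpP1P2, Mycobacterium tuberculosis (UniProt P9WPC5 and UniProt P9WPC3). Protease assay of ClpP1P2, read by the AMC dye that it sets free. Tested at 50 µM. Direction is inferred from only a few compounds that gave an IC50; most scored high, so higher reads as stronger inhibition. Most other retested compounds had strongly negative values. Of about 69,000 compounds tested this way, about 10 (0.015%) reached 50% or more in at least one test.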
PfKRS1: 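Enzyme assay of the cytosolic lysyl-tRNA synthetase in 384-well plates, read by luminescence. Target: Lysine-tRNA ligase, Plasmodium falciparum 3D7 (UniProt Q8IDJ8). Compounds at 30 µM. Direction is inferred from only a few compounds that gave an IC50; most scored high, so higher reads as stronger inhibition. Of about 69,000 compounds tested this way, about 49 (0.071%) reached 50% or more in at least one test.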

The filed quantity is “Percent Effect” (%).
How 0% and 100% were set is not recorded. Most values in the screen are low, and negative values occur.
Compounds were drawn at random from those tested, without regard to their results.
Two or more numbers in one place are separate tests of the same structure; such repeats can differ widely.
A dash means the value is not listed here; it may have been measured.

| # | structure | Leishmania in macrophages | TcHisRS | CoaBC | ClpP1P2 | PfKRS1 |
|---|---|---|---|---|---|---|
| 1 | `CCCc1cc(C(=O)N2CCC3(CCCN(CCOC)C3=O)C2)cs1` (stereo not shown) | 14.01% | -2.186% | 2.832% | -4.255% | -0.9674% |
| 2 | `CS(=O)(=O)NC1CCN(Cc2coc(-c3ccc(Cl)cc3)n2)CC1` | 30.55% | 11.52% | 11.19% | 3.146% | 2.429% |
| 3 | `CC(C)CCCNC(=O)Nc1ccc(C(N)=O)c(Cl)c1` | -4.358% | 3.704% | -6.434% | -18.53% | 0.5359% |
| 4 | `Cc1noc(C)c1CN1C[C@H]2CN(Cc3cccc(F)c3)C[C@H]2C1` | - | 0% | 1.238% | -10.86% | 2.405% |
| 5 | `O=C1CO[C@@H]2CN(S(=O)(=O)c3ccccc3)C[C@H]2N1CC1CC1` | - | 2.703% | 4.188% | 2.885% | 4.509% |
| 6 | `CN(C)C(=O)CN1CCC2(COCc3cnc(N4CCOCC4)nc32)C1` (stereo not shown) | - | 8.824% | 1.75% | 7.776% | -1.59% |
| 7 | `COc1ccc(NC(C)C(=O)NCCc2cccs2)cc1F` (stereo not shown) | 5.405% | 5.785% | -4.478% | -0.2298% | -2.585% |
| 8 | `Cc1c[nH]cc1C(=O)N1CCN(CCc2cccs2)CC1` | 35.4% | 3.817% | 1.813% | -3.031% | -1.078% |
| 9 | `COC(=O)c1cccc(S(=O)(=O)NCC(c2ccco2)N2CCCC2)c1` (stereo not shown) | 25.87% | 3.704% | 2.584% | 5.913% | 2.253% |
| 10 | `CNC(=O)c1ccc(C2CN(C(=O)c3coc(C)n3)CCO2)nc1` (stereo not shown) | 4.12% and 9.847% | 3.333% | 1.695% | -3.885% | 3.404% |
| 11 | `O=C(O)C(F)(F)F.[H][C@@]12CCCO[C@]1([H])[C@H](NC(=O)c1cnoc1C)CN(C1CCC1)C2` | 21.25% | - | - | - | - |
| 12 | `[H][C@@]12CCCO[C@]1([H])[C@H](N(CC)CC)CN2Cc1ccc(C)o1` | 27.9% | - | - | - | - |
| 13 | `OCC1CCCN1c1cc(N2CCC(OC3CCCC3)CC2)ncn1` (stereo not shown) | 33.44% | 2.642% | 10.51% | 18.39% | 4.61% |
| 14 | `O=C(O)C(F)(F)F.[H][C@@]12CN(CCOC)C[C@]1([H])[C@@H](OC)CCN2C(=O)Cc1ccsc1` | 11.93% | - | - | - | - |
| 15 | `O=C1NCCN2CCN(C(=O)Nc3ccc(-c4ccccc4)cc3)CC12` (stereo not shown) | 4.562% | -5.978% | 7.438% | 13.03% | 1.278% |
| 16 | `CCOC(=O)c1cc2c(=O)[nH]c(=O)n(CCc3ccccc3)c2nc1C` | 6.166% | -2.89% | 0.2481% | -4.012% | -0.3645% |
| 17 | `O=C(O)C1(Cc2ccccc2Cl)CCN(c2ncnc3[nH]ccc23)CC1` | 10.76% | 4.721% | 3.947% | -10.26% | 2.079% |
| 18 | `N#Cc1ccc(OCC(=O)N2CCCC(n3cccn3)C2)cc1` (stereo not shown) | -11.95% | 2.521% | 3.24% | -8.4% | 13.38% |
| 19 | `CCOc1ncccc1CNC(=O)Nc1ccc(N(C)C)nc1` | 23.01% | -0.3802% | -0.527% | 2.686% | -6.494% |
| 20 | `CC(C)C1CN(Cc2nccn2C(C)C)CCC(=O)N1CC1CC1` (stereo not shown) | 8.195% | 2.041% | 3.672% | 9.405% | -1.694% |
| 21 | `Cn1cnc2cc(CCC(=O)Nc3nc[nH]n3)ccc21` | -5.853% | 5.699% | -29.43% | -0.1401% | 6.684% |
| 22 | `CCN(c1cccc(F)c1)S(=O)(=O)c1cc(C(=O)O)cc2c1CCC2` | 29.4% | 2.632% | - | -2.741% | 2.311% |
| 23 | `CCN1CCC2(CCN(Cc3ccc(OC)cc3)CC2)C1=O.O=C(O)C(F)(F)F` | -16.47% | - | - | - | - |
| 24 | `Cc1cnc(N2CC[C@@H]3CN(CCC(C)C)S(=O)(=O)[C@@H]3CC2)nc1` | - | 5.473% | 2.581% | -10.96% | 2.299% |
| 25 | `O=C(NCC1CCCO1)c1ccc(S(=O)(=O)NCCc2cn[nH]c2)cc1` (stereo not shown) | -13.88% | 4% | -3.68% | -2.145% | 3.561% |
| 26 | `O=C([C@H]1CCCO1)N1CCC2(CC1)CNCc1ccccc12` | - | -8.861% | - | 3.257% | 0.7513% |
| 27 | `O=C(O)C(F)(F)F.[H][C@]12CC[C@@]3(N=C(CC)NC3=O)[C@@]1([H])CN(Cc1ccc(Cl)cc1)C2` | -7.36% | - | - | - | - |
| 28 | `COc1ccnc(N2CCN(C(=O)c3cccc(C#N)c3)CC2)n1` | 3.314% | 5.202% | -3.259% | -5.924% | 0.807% |
| 29 | `CCOc1ccnc(N2CCCN(c3nc(C4CC4)ns3)CC2)n1` | 8.05% | 2.041% | 3.62% | 2.945% | 2.346% |
| 30 | `CC(C)c1cc(N2CCCC3(CCN(C)C3)C2)ncn1` (stereo not shown) | 20.33% | 8.333% | -3.071% | 0.4366% | -0.4539% |
| 31 | `CCOc1ccccc1-c1noc(CN2CCN(CCOC)CC2)n1` | 12.97% | 0% | 3.672% | 5.906% | 3.183% |
| 32 | `Cc1cnnn1Cc1nnn2c1CN(Cc1ccccn1)CCC2.O=C(O)C(F)(F)F` | 23.27% | - | - | - | - |
| 33 | `CN(C)CC1CSCCCN1C(=O)c1ccc(-n2cccc2)cc1` (stereo not shown) | 3.515% | 8% | -7.246% | -2.716% | 3.887% |
| 34 | `Cc1ccc(N2CCCN(C(=O)C3(C#N)CCCCC3)CC2)nn1` | 8.838% | 1.901% | 0.7979% | 11.08% | 5.13% |
| 35 | `COc1ncc(C2(O)CCN(Cc3cc(F)ccc3F)CC2)c(OC)n1.Cl` | 1.112% and 17.34% | - | - | - | - |
| 36 | `CCc1nc2ccccc2n1C(CC)C(=O)N(C)CCc1noc(C)n1` (stereo not shown) | -0.3152% | 6.25% | -0.6361% | -7.92% | 0.4901% |
| 37 | `O=C(CC1CCC1)N1CCCC(CO)(CC2CC2)C1` (stereo not shown) | 15.99% | 3.077% | 17.91% | -5.887% | 1.505% |
| 38 | `O=C(NCc1ccco1)N1CCCCC1c1nc(-c2ccncc2)no1` (stereo not shown) | 11.43% | 17.82% | 4.739% | 6.726% | 2.106% |
| 39 | `Cc1cccc(CN2Cc3[nH]nc(COCCO)c3C2)n1` | - | 8.602% | 1.057% | -1.986% | 0.96% |
| 40 | `O=C(c1ccc(F)cc1F)N1C[C@@H](O)[C@H](N2CCOCC2)C1` | -7.703% | -3.226% | 6.937% | 8.066% | 1.662% |
| 41 | `Cc1cc(NCc2ccc(CS(N)(=O)=O)cc2)nc(C)n1` | 3.765% | 6.154% | 6.2% | 10.12% | 1.481% |
| 42 | `Cc1cccc(CN2CCCC3(Cc4ccccc4CNC3=O)C2)n1` (stereo not shown) | 7.511% | 7.692% | 2.105% | -3.571% | 5.252% |
| 43 | `CN1CCN(C(=O)c2cc(-c3ccco3)cs2)CC1` | 22.78% | 11.18% | 2.152% | -2.659% | 5.83% |
| 44 | `CCn1nc2c(cc1=O)CN(CCCN1CCCC1=O)CC2` | -13.64% | 4.942% | 15.02% | -17.74% | 1.771% |
| 45 | `Cc1ccc2ncn(CC(O)CN3CCC(C)CC3)c(=O)c2c1` (stereo not shown) | -26.57% | -3.797% | 12.02% | 0.2727% | 4.134% |
| 46 | `O=c1[nH]cnc2c1CCN(S(=O)(=O)c1ccc(Cl)cc1)C2` | 10.57% | 7% | 10.08% | -0.9837% | 5.36% |
| 47 | `Cn1cc(CCC(=O)N2C[C@H]3CC[C@@H]2CN(Cc2cccnc2)C3)cn1` | - | -0.4464% | -2.551% | 3.287% | 0.1491% |
| 48 | `CCc1ocnc1C(=O)N1CCC(C2CCN(c3ncccn3)CC2)C1` (stereo not shown) | 23.85% | 8.642% | -1.229% | -16.57% | 0.3697% |
| 49 | `CNC(=O)C1CCCN(C(=O)NCCC2Cc3ccccc3C2)C1` (stereo not shown) | 28.73% | 4.706% | -0.9828% | -12.51% | -0.1828% |
| 50 | `Cc1ccc(C(=O)N2CCN(CCc3cccs3)CC2)c(=O)[nH]1` | 14.36% | 3.817% | 1.554% | -7.624% | 2.157% |
| 51 | `Cc1cc(C2CCC2)nc(NCC(C)(C)N2CCOCC2)n1` | 23.38% | -1.293% | 6.464% | -7.991% | 2.149% |
| 52 | `c1ccc2c(NCC3(N4CCOCC4)CCSC3)ncnc2c1` (stereo not shown) | 26.99% | 7.389% | 2.848% | -10.33% | 4.998% |
| 53 | `CC(C)CC(=O)N1C[C@@H]2CCN(c3ncccn3)C[C@@H]2C1` | - | -3.008% | -3.869% | 25.78% | -19.61% |

The last 6 entries again:

With CCc1ocnc1C(=O)N1CCC(C2CCN(c3ncccn3)CC2)C1 (stereo not shown) the screen gave Leishmania in macrophages: 23.85%; TcHisRS: 8.642%; CoaBC: -1.229%; ClpP1P2: -16.57%; PfKRS1: 0.3697%.
With CNC(=O)C1CCCN(C(=O)NCCC2Cc3ccccc3C2)C1 (stereo not shown) the screen gave Leishmania in macrophages: 28.73%; TcHisRS: 4.706%; CoaBC: -0.9828%; ClpP1P2: -12.51%; PfKRS1: -0.1828%.
With Cc1ccc(C(=O)N2CCN(CCc3cccs3)CC2)c(=O)[nH]1 the screen gave Leishmania in macrophages: 14.36%; TcHisRS: 3.817%; CoaBC: 1.554%; ClpP1P2: -7.624%; PfKRS1: 2.157%.
With Cc1cc(C2CCC2)nc(NCC(C)(C)N2CCOCC2)n1 the screen gave Leishmania in macrophages: 23.38%; TcHisRS: -1.293%; CoaBC: 6.464%; ClpP1P2: -7.991%; PfKRS1: 2.149%.
With c1ccc2c(NCC3(N4CCOCC4)CCSC3)ncnc2c1 (stereo not shown) the screen gave Leishmania in macrophages: 26.99%; TcHisRS: 7.389%; CoaBC: 2.848%; ClpP1P2: -10.33%; PfKRS1: 4.998%.
With CC(C)CC(=O)N1C[C@@H]2CCN(c3ncccn3)C[C@@H]2C1 the screen gave TcHisRS: -3.008%; CoaBC: -3.869%; ClpP1P2: 25.78%; PfKRS1: -19.61%.

From ChEMBL document CHEMBL3988442, “University of Dundee, Small-Polar-MMV Screening Library” (2021).